Experimental data as given in paper PMC10419918.
Like-named read-outs stand apart in the source and are kept apart here. These are yes or no findings as the source states them, for the method shown. In cells and extracts the contact can be indirect. Some results given as binding are weak or reduced against the parent protein; the word gives no strength. Where a sequence is shown, tags or fusion partners need not be part of it. Blank lines part the entries; values can stand above or below the molecule they belong to.

By UniProt entry, the sequences of proteins in these tests, tags left out.
UniProt Q96524: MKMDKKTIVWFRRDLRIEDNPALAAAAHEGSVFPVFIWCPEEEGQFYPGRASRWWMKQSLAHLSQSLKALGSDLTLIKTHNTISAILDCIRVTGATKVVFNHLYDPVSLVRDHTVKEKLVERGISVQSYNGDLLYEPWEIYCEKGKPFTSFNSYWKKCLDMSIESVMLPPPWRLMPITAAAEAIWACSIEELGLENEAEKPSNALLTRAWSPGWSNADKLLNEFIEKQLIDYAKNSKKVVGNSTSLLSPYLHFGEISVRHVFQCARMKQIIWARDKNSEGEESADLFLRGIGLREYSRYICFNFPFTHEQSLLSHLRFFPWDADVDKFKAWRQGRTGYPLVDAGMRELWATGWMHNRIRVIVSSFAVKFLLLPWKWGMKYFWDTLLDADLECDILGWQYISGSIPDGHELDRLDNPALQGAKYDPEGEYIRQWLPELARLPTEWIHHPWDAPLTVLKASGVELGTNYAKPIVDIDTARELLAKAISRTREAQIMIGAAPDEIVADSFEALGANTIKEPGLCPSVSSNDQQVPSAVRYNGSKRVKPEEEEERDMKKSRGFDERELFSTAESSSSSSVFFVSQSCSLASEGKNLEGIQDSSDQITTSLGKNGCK

How the values were obtained:
[1] = target: T1, FGFP–NF–YC5 (Arabidopsis) (UniProt Q9FGP6); assay: co-IP; Arabidopsis seedlings Myc–CRY2/FGFP–NF–YCs grown in the dark for 8 days, exposed to blue light (0 min, or 5, 10 and 15 min samples mixed); precipitated with GFP–Trap agarose beads; blots with anti–GFP and anti–Myc
T1 sequence: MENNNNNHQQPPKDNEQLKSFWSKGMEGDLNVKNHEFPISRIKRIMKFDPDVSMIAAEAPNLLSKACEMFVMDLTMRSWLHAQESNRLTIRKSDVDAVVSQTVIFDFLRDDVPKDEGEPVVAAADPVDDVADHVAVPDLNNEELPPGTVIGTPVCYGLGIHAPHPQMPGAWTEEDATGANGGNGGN

[2] = target: T2, FGFP–NF–YC8 (Arabidopsis) (UniProt Q4PSE2); assay: as above
T2 sequence: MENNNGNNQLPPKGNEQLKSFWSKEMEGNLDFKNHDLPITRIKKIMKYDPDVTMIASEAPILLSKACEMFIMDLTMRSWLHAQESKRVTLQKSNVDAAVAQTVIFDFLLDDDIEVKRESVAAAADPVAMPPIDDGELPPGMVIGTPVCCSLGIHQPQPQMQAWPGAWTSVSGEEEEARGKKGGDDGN

[3] = target: T3, FGFP–NF–YC7 (Arabidopsis) (UniProt Q9FGP8); assay: as above
T3 sequence: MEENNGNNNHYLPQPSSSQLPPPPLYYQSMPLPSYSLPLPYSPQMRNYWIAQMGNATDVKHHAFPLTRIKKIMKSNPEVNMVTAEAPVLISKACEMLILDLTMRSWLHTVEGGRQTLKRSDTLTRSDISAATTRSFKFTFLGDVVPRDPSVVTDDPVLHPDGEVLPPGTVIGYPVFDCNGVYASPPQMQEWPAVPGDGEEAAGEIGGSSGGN

GFP–NF–YC7 (Arabidopsis) [4] = target: T4, GFP–NF–YC7 (Arabidopsis) (UniProt Q9FGP8); assay: co-IP; HEK293T cells co-expressing GFP–NF–YCs with Myc–CRY2 and/or Flag–PIFs (CMV5 promoter); cells kept in darkness or blue light (100 μmol m^−2 s^−1, 1 h); GFP–NF–YCs precipitated with GFP–Trap agarose beads; blots with anti–GFP, anti–Myc, anti–Flag
T4 sequence: T3 sequence

GFP–NF–YC5 (Arabidopsis) [5] = target: T5, GFP–NF–YC5 (Arabidopsis) (UniProt Q9FGP6); assay: as above
T5 sequence: T1 sequence

GFP–NF–YC8 (Arabidopsis) = target: T6, GFP–NF–YC8 (Arabidopsis) (UniProt Q4PSE2); assay: as above
T6 sequence: T2 sequence

[6] = target: T7, NF–YC7–nLUC (Arabidopsis) (UniProt Q9FGP8); assay: split reporter; firefly luciferase complementation imaging (LCI): NF–YCs–nLUC and cLUC–PIFs transiently expressed in N. benthamiana leaves, in the absence or presence of Myc–CRY2; 1 mM luciferin, 5 min in the dark
T7 sequence: T3 sequence

[7] = target: T8, NF–YC5–nLUC (Arabidopsis) (UniProt Q9FGP6); assay: as above
T8 sequence: T1 sequence

GFP–NF–YC7 (Arabidopsis) [8] = target: T4, GFP–NF–YC7 (Arabidopsis); assay: co-IP; HEK293T cells co-expressing GFP–NF–YCs with Myc–CRY2 and/or Flag–PIFs (CMV5 promoter); cells kept in darkness or blue light (100 μmol m^−2 s^−1, 1 h); GFP–NF–YCs precipitated with GFP–Trap agarose beads; blots with anti–GFP, anti–Myc, anti–Flag; remark: listed apart in the source
GFP–NF–YC5 (Arabidopsis) [9] = target: T5, GFP–NF–YC5 (Arabidopsis); assay: as above; remark: listed apart in the source

Molecule: Myc–CRY2 (HEK293T) (from UniProt Q96524 1-612)
binding (GFP–NF–YC7 (Arabidopsis) [4]): binds
binding (GFP–NF–YC5 (Arabidopsis) [5]): binds
binding (GFP–NF–YC8 (Arabidopsis)): binds

B1: Flag–PIF5 (HEK293T) (protein, UniProt Q84LH8 1-444)
chain: MEQVFADWNFEDNFHMSTNKRSIRPEDELVELLWRDGQVVLQSQARREPSVQVQTHKQETLRKPNNIFLDNQETVQKPNYAALDDQETVSWIQYPPDDVIDPFESEFSSHFFSSIDHLGGPEKPRTIEETVKHEAQAMAPPKFRSSVITVGPSHCGSNQSTNIHQATTLPVSMSDRSKNVEERLDTSSGGSSGCSYGRNNKETVSGTSVTIDRKRKHVMDADQESVSQSDIGLTSTDDQTMGNKSSQRSGSTRRSRAAEVHNLSERRRRDRINERMKALQELIPHCSRTDKASILDEAIDYLKSLQMQLQVMWMGSGMAAAAAAAASPMMFPGVQSSPYINQMAMQSQMQLSQFPVMNRSAPQNHPGLVCQNPVQLQLQAQNQILSEQLARYMGGIPQMPPAGNQMQTVQQQPADMLGFGSPAGPQSQLSAPATTDSLHMGKIG
binding (GFP–NF–YC7 (Arabidopsis) [8]): binds
binding (GFP–NF–YC5 (Arabidopsis) [9]): binds

The remaining lines, values ahead:

binding [1]: binds
binding [2]: binds
binding [3]: binds
Molecule: Myc–CRY2 (Arabidopsis line) (from UniProt Q96524 1-612)

binding [6]: binds
binding [7]: binds
Molecule: Myc–CRY2 (N. benthamiana) (from UniProt Q96524 1-612)

binding [6]: binds
binding [7]: binds
B2: cLUC–PIF5 (protein, UniProt Q84LH8 1-444)
chain: B1 chain
